# Over roughly 33,000 sequences, “E-score (-0.5 to 0.5)” has its median near -0.0034; the highest 2% begin near 0.25. Some of the results follow.
# Target: T1, Yap3 (UniProt P38749)
# T1 sequence: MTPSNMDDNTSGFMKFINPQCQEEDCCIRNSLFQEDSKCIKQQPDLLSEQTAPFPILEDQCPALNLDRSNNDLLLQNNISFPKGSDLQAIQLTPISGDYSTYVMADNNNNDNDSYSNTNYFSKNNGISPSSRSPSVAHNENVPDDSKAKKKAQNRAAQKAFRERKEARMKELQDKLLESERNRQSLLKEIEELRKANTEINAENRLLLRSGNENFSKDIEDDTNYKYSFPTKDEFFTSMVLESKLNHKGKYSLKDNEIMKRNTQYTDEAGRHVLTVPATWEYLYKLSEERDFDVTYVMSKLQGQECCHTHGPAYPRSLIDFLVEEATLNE
# Test: PBM E-score (8-mer binding enrichment) (E-score (-0.5 to 0.5)); higher = stronger / more preferred TF binding
# Settings: protein concentration: 100 nM; construct: GST-full length
# In short: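 Bound GST-tagged yeast transcription factors, applied at about 100-200 nM to double-stranded universal all-10-mer Agilent arrays, were detected with fluorescent anti-GST. Scans were normalised with masliner. A modified Wilcoxon-Mann-Whitney statistic, the E-score, was assigned to each ungapped eight-base word pooled with its reverse complement by the Universal PBM Analysis Suite.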
row,Sequence,PBM E-score
1,GCACCGCC,-0.254
2,AAGACATT,-0.0286
3,GATCGGTA,0.0794
4,AGGATACA,0.0461
5,GTGGCGGA,-0.126
6,CCTTGGAA,-0.0618
7,GACAAGGA,-0.0488
8,CTAGTGCC,-0.274
9,AAACTCTT,-0.162
10,ACTACCAC,0.0697
11,CCTGAGCA,-0.0903
12,AGAAATCC,0.0494
13,AGGGATTA,0.0524
14,CGAAGAAG,0.0862
15,ACCCAAGC,-0.214
16,GAACGGGA,-0.0727
17,AATCCGTC,0.0988
18,GTACACAC,0.242
19,ACTACCTG,0.0736
20,GAGTGGCA,-0.00056
21,AGTCTCAA,-0.175
22,CAGCCACG,-0.0341
23,ACAAGGCA,-0.0311
24,CTAAATAC,0.0333
25,CTTGATGA,0.133

row,Sequence,PBM E-score
1,TGACTAAA,0.125
2,ACTAGGTA,0.0146
3,CCGACATA,0.0927
4,AAAAGGCT,-0.0958
5,TAACCAAA,0.213
6,TGGGCCCA,0.0816
7,GGCGTAAA,0.147
8,ATTGAGAA,0.17
9,ACCGTCGA,-0.147
10,CGAAGATC,0.0118
11,CGTCCATC,-0.116
12,AGTGGTAA,0.0605
13,ACCTGTCG,0.0682
14,CGTCGAAG,-0.0269
15,ACGAGGTC,-0.00365
16,ACCCGAAA,-0.0231
17,GGGTATTA,0.0348
18,GGCCGTAC,-0.0359
19,CATAGAGG,-0.0925
20,AGCATTAT,0.157
21,GCGGGTAA,-0.0735
22,ATACCGAG,-0.0707
23,CGTCATGA,0.0958
24,ATTTGCCC,0.0985
25,ACTGGTAC,-0.00269

row,Sequence,PBM E-score
1,CTCATTTC,-0.0658
2,ATATGTGC,0.0272
3,CGTGAACA,0.031
4,AATTAGGC,0.155
5,GTCCTTAA,0.147
6,AATCCGGC,0.0559
7,CCCCCATC,-0.289
8,CCTAATTA,0.136
9,ATAGTCTA,-0.0503
10,TCCGTCCA,-0.00142
11,CGTAATAG,0.314
12,TAGGTCAA,0.0932
13,CCTTTCTC,-0.033
14,CGTACCGA,-0.0394
15,CAGTCATC,-0.27
16,CCACCTGC,-0.00772
17,ATATATTC,0.241
18,ACAAACAA,0.173
19,CTGCATCC,0.00606
20,AGCTCTCA,-0.171
21,CGAACGAA,0.108
22,AGTTTCTG,0.022
23,GAGCTTCA,0.0798
24,GTTTTGCA,0.0353
25,ACGAATTG,0.0568

# Looked up above.
# In PBM E-score, TAACCAAA has 0.213
# In PBM E-score, AGCATTAT has 0.157
# In PBM E-score, AATCCGTC has 0.0988

# Later entries.

row,Sequence,PBM E-score
1,AAGCTCTG,-0.179
2,GTTTAGTA,0.275
3,CTAAGCAA,-0.0294
4,GATCGAAC,-0.0957
5,GCGGTTAC,0.041
6,CAAGTTTA,0.0415
7,CCCAGTGC,-0.0688
8,AGTCTTTG,-0.178
9,GTAGTGGA,0.144
10,CCCTCCTC,-0.327
11,ACCACTCG,0.0759
12,ATACATAC,0.0937
13,ACCCTAGC,-0.189
14,ATAGCAGC,-0.0604
15,AAATAAGT,0.145
16,AACAGCAC,0.0426
17,AGGAATGC,-0.0871
18,AATCCGAG,0.00595
19,GCTGAGGA,-0.11
20,ACGGTTAG,-0.0943
21,TAACAGCA,0.183
22,AATCTCTC,-0.0515
23,ACGTACCA,0.118
24,CGGATTCA,0.0218
25,GCATCGGA,0.0224

# 3 records picked at random from those above:
row,Sequence,PBM E-score
10,CGAAGATC,0.0118
14,ATAGCAGC,-0.0604
21,AGTCTCAA,-0.175

# (listing goes on)

row,Sequence,PBM E-score
1,GGCCTTGA,-0.0754
2,TCTTTCAA,0.102
3,CTTTGACC,0.0628
4,CGCGCACG,-0.0669
5,GACATGAA,0.00571
6,CGCTTTCA,0.0529
7,CTACAAGA,-0.0715
8,CGTCTGTC,-0.0989
9,AATACTCG,0.131
10,TAAGCCTA,0.141
11,AACTATAA,0.186
12,CTTCTAAC,-0.21
13,CAGCTCCG,-0.111
14,CTCTAACC,-0.137
15,ACTTGGCA,-0.0663
16,GGACTTCA,-0.143
17,CGTAGCAG,-0.142
18,ACTACAAG,-0.0453
19,ACTTCGCG,0.0127
20,GATGGACC,0.0557
21,CGACGCAC,0.0329
22,GTTCTCAA,0.109
23,AGCCTATG,-0.0995
24,CACTTGCC,-0.0273
25,GCCACCAC,-0.279

row,Sequence,PBM E-score
1,CTCAACCC,-0.0853
2,CATGACCC,-0.0127
3,CTCAGGTC,-0.0312
4,GGAACAGA,0.121
5,CTGCCTAA,-0.0262
6,ATTTATGG,0.15
7,CCGCAGAA,0.137
8,GCATACGA,-0.062
9,ATGACCCG,-0.225
10,TCTTTGCA,0.0876
11,AAGCGTGC,-0.0546
12,CATGTAGC,-0.048
13,CGTTTTCC,0.159
14,AATTGTCG,0.0823
15,CCTCGAAA,0.00526
16,AAGGAGTA,0.0193
17,ATCGTCTA,0.0489
18,CGACGTGC,-0.0495
19,CGAACTTA,0.0175
20,CTTAACTC,0.107
21,AGTCGACA,0.0995
22,TATGGCCA,0.0682
23,AGAGCTCT,-0.171
24,AGCCCGAG,-0.24
25,CGGCCAGC,-0.167

row,Sequence,PBM E-score
1,GGCGATGA,-0.0696
2,CCAAGCCG,-0.135
3,ACCAGCAC,-0.0391
4,CAGGCGTA,-0.145
5,ACTTCCCT,-0.0641
6,TAAGTTGA,0.0954
7,ACAGTCAC,-0.196
8,GGCATACA,0.0706
9,CCCAGAGC,-0.219
10,GGTTCACA,-0.106
11,GAGTGCCC,-0.176
12,AAGGTATA,0.0493
13,ATCCGCGA,0.0412
14,CCCCAGAA,-0.168
15,CACCCACC,0.0143
16,TAAGCGCA,-0.0135
17,ACCAATGG,-0.013
18,CGCCCGCC,-0.288
19,ACGGGGCG,0.0648
20,CACGACGC,-0.211
21,CATGGCGC,-0.0288
22,ACGACTAG,0.0495
